Data taken from PubChem BioAssay AID1671190 (National Center for Advancing Translational Sciences (NCATS), 2021).
Values joined by “and” are separate entries in the source; they are usually repeats but may differ in a detail not shown here. Equal entries are not always repeated. The whole screen tested about 580,000 compounds, of which about 6,100 (1.1%) were called active. Inconclusive means that the source gave no clear call. Such entries were picked first, then a sample of the others. Calls follow the shape of the dose curve; as a rule, active = well fitted inhibition curve with a large enough effect; inconclusive = small, poorly fitted or top-dose-only effect, or another doubt; inactive = no such curve, though single readings can be large or run the other way. Potencies of inconclusive entries are doubtful fits and often do not repeat.

Protein sequences, listed by entry. Tags and fused reporters are not part of them.
UniProt P18054, whole entry, looked up: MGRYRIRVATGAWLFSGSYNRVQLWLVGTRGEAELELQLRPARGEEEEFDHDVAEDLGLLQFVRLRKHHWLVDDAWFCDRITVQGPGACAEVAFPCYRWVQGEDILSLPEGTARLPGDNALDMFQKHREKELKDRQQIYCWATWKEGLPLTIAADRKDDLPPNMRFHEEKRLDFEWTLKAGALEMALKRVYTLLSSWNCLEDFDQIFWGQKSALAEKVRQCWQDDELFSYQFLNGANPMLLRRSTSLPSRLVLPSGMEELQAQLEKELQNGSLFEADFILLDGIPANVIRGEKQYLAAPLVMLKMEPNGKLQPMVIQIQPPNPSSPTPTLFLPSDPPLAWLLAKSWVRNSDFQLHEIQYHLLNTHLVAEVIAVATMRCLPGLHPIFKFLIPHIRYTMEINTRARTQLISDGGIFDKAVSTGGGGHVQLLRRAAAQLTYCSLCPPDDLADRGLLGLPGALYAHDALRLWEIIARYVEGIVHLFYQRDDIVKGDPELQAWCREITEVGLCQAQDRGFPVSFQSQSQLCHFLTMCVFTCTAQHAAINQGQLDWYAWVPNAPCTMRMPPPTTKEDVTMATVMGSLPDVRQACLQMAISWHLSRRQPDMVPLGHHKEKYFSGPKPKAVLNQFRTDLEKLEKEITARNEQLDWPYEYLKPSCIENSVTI

Target: Polyunsaturated fatty acid lipoxygenase ALOX12 (Homo sapiens) (UniProt P18054)
Assay: Primary qHTS assay for inhibitors of human arachidonate 12S-lipoxygenase (ALOX12): Round 2
Conditions: purified 12hLO, xylenol orange hydroperoxide absorbance; series mostly up to 108 µM
Summary of the method: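 Purified human 12hLO at 150 nM in 25 mM Hepes, 0.01% Triton X-100, pH 7.0, preincubated 15 min at room temperature with compound. Reaction started with 40 uM arachidonic acid, 30 min at room temperature. Hydroperoxide measured by Fe-xylenol orange, 573/405 nm absorbance ratio.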
Potency is read from the fitted curve at half-maximal effect.

SMILES | Potency
CCc1nn(CCCN2CCN(c3cccc(Cl)c3)CC2)c(=O)n1CCOc1ccccc1 | inconclusive: 50.1 µM [inhibitor, partial curve, poor fit] and inconclusive: 44.7 µM [inhibitor, partial curve, poor fit]
O=C(Nc1ccncc1)Nc1cc(Cl)ccc1Cl | inconclusive: 50.1 µM [inhibitor, partial curve, poor fit]
COc1ccc(C(=O)NCc2ccc3c(c2)CCN3C(C)=O)cc1OC | inconclusive: 50.1 µM [inhibitor, partial curve, poor fit]
COc1cccc(SCC(=O)c2ccc3c(c2)CCC(=O)N3)c1 | active: 35.5 µM
COc1ccc(Cc2c(-c3ccco3)nc3ccc(Cl)cn23)c(C)c1 | inconclusive: 44.7 µM [inhibitor, partial curve, poor fit]
CCNc1nc(NCC)nc(OCCOC(=O)c2ccccc2)n1 | inactive
O=C(O)CCn1cc(C2CC(c3ccccc3)=NN2c2ccccc2)c(-c2ccccc2)n1 (stereo unspecified) | inconclusive: 79.4 µM [inhibitor, partial curve, poor fit]
CCC(C)NC(=O)C12CC3CC(CC(Cl)(C3)C1)C2 (stereo unspecified) | inactive
COc1ccc(-c2ccc(SCC(=O)N3c4ccccc4CC3C)nn2)cc1OC (stereo unspecified) | inactive
CC(C)(C)C(=O)Nc1ccc(N2CCCC2)cc1 | inconclusive: 35.5 µM [inhibitor, single point]
C[C@@H]1CN([C@@H](C)CO)S(=O)(=O)c2ccc(C#Cc3cccc(F)c3)cc2O[C@H]1CN(C)S(=O)(=O)c1cn(C)cn1 | inconclusive: 44.7 µM [inhibitor, partial curve, poor fit]
O=C(CN(c1cccc(Cl)c1)S(=O)(=O)c1ccc(Cl)cc1)NCc1ccccn1 | inconclusive: 44.7 µM [inhibitor, partial curve, poor fit]
C#CCOCCOCCOCCNc1nc(N2CCN(C(=O)Cn3cc(CCCCN)nn3)CC2)nc(N2CCN(C(=O)Cn3cc(CCCN=C(N)N)nn3)CC2)n1 | active: 2.51 µM
c1ccc(-c2ccc(OCCCNC3CCCC3)cc2)cc1 | inconclusive: 14.1 µM [inhibitor, full curve]
CC(C)(C)c1cc[n+](CC(=O)Nc2cc(C(F)(F)F)ccc2N2CCOCC2)cc1 | inconclusive: 39.8 µM [inhibitor, partial curve, poor fit]
Cc1ccc(SCCC(=O)Nc2cccc(N(C)S(C)(=O)=O)c2)cc1 | inconclusive: 158 µM [inhibitor, partial curve, poor fit]
